Measurements from PubChem BioAssay AID2685 (National Center for Advancing Translational Sciences (NCATS), 2010).
“And” between values parts separate entries of the source, which are not always exact repeats. Equal entries are not always repeated. The list shows a part of the results. Shown are side measurements of this screen, not its main read-out; they come without a call. Most of these compounds were active or inconclusive in the main read-out, so they are no random draw. Potencies come from curve fits of mixed quality, noted in brackets.

Assay: qHTS Assay for Lipid Storage Modulators in Drosophila S3 Cells;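 as to cell number change: cells counted by Cell Tracker Red CMTPX staining in the red channel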
Details: BODIPY lipid droplet fluorescence, 18-24 h; for cell number change: measured here: cell count max response, cells fed with added oleic acid
Method in brief: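 Laser-scanning cytometry quantifies lipid droplet accumulation (500–530 nm total intensity; droplet/cell object ratio) in oleic acid-fed (400 uM added) Drosophila S3 cells treated with a concentration series. 20 uM Triacsin C defined 100% inhibition.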

[1] = measured here: lipid fluorescence (Fed channel) AC50, cells fed with added oleic acid
[2] = measured here: cell number channel AC50, cells fed with added oleic acid

SMILES	cell number change	AC50 [1]	AC50 [2]
COc1ccc(N2C(=O)CS/C2=C\[N+](=O)[O-])cc1	7.53%	2.91 µM [rising, single point]	–
O=C(CCN1C(=O)c2ccccc2C1=O)Nc1ccc(F)cc1	-10.2%	0.651 µM [falling, full curve, poor fit]	0.231 µM [falling, full curve, poor fit]
NC(=O)c1ccc(F)cc1	-14.1%	0.184 µM [falling, full curve, poor fit]	–
CC(C)OC(=O)CSc1nc(N)c(C#N)cc1C#N	-4.31%	0.651 µM [falling, full curve]	0.731 µM [falling, full curve]
COc1ccc2[nH]c(C(=O)Nc3ccc4c(c3)OCO4)cc2c1	45.3%	3.26 µM [rising, full curve]	–
O=C(COc1ccccc1)N1CCN(S(=O)(=O)c2ccc(Cl)cc2)CC1	–	–	2.91 µM [rising, single point]
CC(C)CC(=O)Nc1c2c(nn1-c1cccc(Cl)c1)CS(=O)C2 (stereo unspecified)	20.9%	7.31 µM [rising, partial curve]	–
O=C(Oc1ccc(Cl)c2cccnc12)c1cccnc1	22.3%	29.1 µM [rising, single point]	–
CC12CN(C(=O)c3ccccc3)C3(C#N)CC1CCC23C (stereo unspecified)	-8.59%	0.731 µM [falling, full curve]	–
Cc1nc(NC(=O)/C=C/c2ccco2)sc1C	15.5%	5.8 µM [rising, partial curve]	–
COc1ccc(C(=O)Nc2nnc(CCc3ccccc3)s2)c(OC)c1	-12.4%	29.1 µM [falling, single point]	–
CCOC(=O)c1c(/N=C/c2cccc([N+](=O)[O-])c2O)sc(C)c1C	-16.3%	2.59 µM [rising, full curve]	–
Cc1[nH]c(=O)[nH]c(=O)c1S(=O)(=O)Nc1cccc(C(F)(F)F)c1	-8.51%	0.326 µM [rising, full curve]	1.84 µM [rising, partial curve, poor fit]
CCC(C)NCCOCCOc1ccc(F)cc1 (stereo unspecified)	-108%	29.1 µM [falling, partial curve]	14.6 µM [falling, partial curve]
Cc1cccc(C)c1NC(=O)CNC(=O)c1c(C)nn(-c2ccccc2)c1Cl	61%	–	5.8 µM [rising, full curve, poor fit]
CN(Cc1ccccc1)CC1CCCN(CCc2ccccc2F)C1 (stereo unspecified)	-2.75%	32.6 µM [falling, single point]	–
O=C1c2cccc3cccc(c23)C(=O)N1CC1CCCO1 (stereo unspecified)	-21.3%	–	–
CC(=O)N(C(C)=O)S(=O)(=O)c1ccc(N=NN2CCCCC2)cc1	-48.5%	0.146 µM [rising, full curve]	29.1 µM [falling, single point]
O=C(Nn1cnnc1)c1ccccc1Cl	15%	0.461 µM [rising, full curve, poor fit]	–
CS(=O)(=O)c1ccc(SCC(=O)NC2CCS(=O)(=O)C2)c([N+](=O)[O-])c1 (stereo unspecified)	-17.5%	–	–

SMILES	cell number change	AC50 [1]	AC50 [2]
COC(=O)C(NNc1ccccc1C)(NC(=O)c1ccc(F)cc1)C(F)(F)F (stereo unspecified)	-61.9%	25.9 µM [falling, single point]	4.61 µM [falling, partial curve]
O=C1NC2(CCCCCC2)C(=O)N1CCS(=O)(=O)Oc1ccccc1	38.7%	–	29.1 µM [rising, single point]
COc1ccc(CCNc2cc(C)[nH]c(=O)c2)cc1OC	23.7%	–	–
O=C(Nc1cc(F)cc(F)c1)c1ccc(NCCc2ccccc2)c([N+](=O)[O-])c1	-39.1%	29.1 µM [falling, single point]	16.4 µM [falling, single point]
CCOc1ccc(NC(=O)Cn2nnc(C(=O)NCCc3ccc(OC)c(OC)c3)c2N)cc1	18.9%	20.6 µM [rising, single point]	–
Cc1ccc(Cl)cc1N1CCN(S(C)(=O)=O)CC1	7.28%	–	–
COc1cc2c(cc1OC)C(c1ccc3c(c1)OCO3)CC(=O)N2 (stereo unspecified)	37.2%	29.1 µM [rising, single point]	25.9 µM [rising, single point]
Cc1cc(C(=O)CSc2nnnn2C)c(C)n1-c1ccc2c(c1)OCCO2	-5.1%	–	–
O=c1oc2ccc(Cl)cc2cc1-c1ccccc1	-7.21%	–	–
O=C(CCCN1C(=O)c2ccccc2C1=O)Nc1ccc(S(=O)(=O)N2CCOCC2)cc1	-1.08%	–	–
CCOc1c(OC)cccc1C(=O)NCC1(c2ccccc2)CCCC1	-4.26%	–	2.59 µM [rising, single point]
COc1ccc(-n2nc(C(=O)NCC(=O)N3CCC(C)CC3)c3ccccc3c2=O)cc1	22.5%	0.82 µM [falling, full curve]	–
CCCCn1c(SCC(=O)NCc2ccco2)nc2c(sc3ccccc32)c1=O	14.2%	1.46 µM [rising, full curve]	–
O=C(CN1C(=O)NC2(CCCC2)C1=O)Nc1ccc(OC(F)(F)F)cc1	11.4%	6.51 µM [falling, single point]	–
COc1ccc(CNS(=O)(=O)c2cn(C)c(=O)n(C)c2=O)cc1	-19.9%	0.58 µM [falling, full curve]	–
Cc1ccc2oc(=O)c3cc(C(=O)N4CCN(C)CC4)sc3c2c1	9.68%	–	0.13 µM [rising, partial curve, poor fit]
Cn1cc(Br)c(C(=O)NC2CCCCC2)n1	137%	–	18.4 µM [rising, single point]
c1ccc2[nH]c(CN3CCCCC3)nc2c1	36%	–	9.2 µM [rising, single point]
COc1ccc(S(=O)(=O)Nc2ccccc2-c2nnn(CC(=O)Nc3ccccc3OC)n2)cc1	–	1.84 µM [rising, partial curve]	–
O=C(CN1CCCCC1)c1c[nH]c2ccccc12	-1.75%	9.2 µM [rising, partial curve]	–

Quoted from the listing.
CCOC(=O)c1c(/N=C/c2cccc([N+](=O)[O-])c2O)sc(C)c1C | cell number change: -16.3%
NC(=O)c1ccc(F)cc1 | AC50 [1]: 0.184 µM [falling, full curve, poor fit]

More structures follow:

SMILES	cell number change	AC50 [1]	AC50 [2]
COc1cc(N=c2ssnc2Cl)c(OC)cc1Cl	-50.3% and -25.9%	29.1 µM [falling, single point] and 3.66 µM [falling, single point]	29.1 µM [falling, single point] and 3.66 µM [falling, full curve, poor fit]
CC(C)C1CC(CCNCc2ccc3c(c2)OCO3)(c2ccccc2)CCO1 (stereo unspecified)	8.44%	0.651 µM [falling, single point]	–
Cc1ccc(NC(=O)C2(S(=O)(=O)c3ccc(C)cc3)CC2)cc1	4.94%	1.64 µM [rising, full curve]	0.326 µM [rising, full curve]
COc1ccc(OCc2cc(-c3ccc(Cl)cc3)no2)cc1	-35.7%	–	–
N=c1n(CCN2CCOCC2)c2ccccc2n1Cc1ccccc1Br	-11.3%	0.0058 µM [falling, full curve, poor fit]	0.00517 µM [falling, full curve, poor fit]
Cc1cc(C)c2cc3c(ccn3C3OC[C@H](O)[C@H](O)[C@H]3O)cc2n1 (stereo partly specified)	-70.7%	6.51 µM [falling, single point]	9.2 µM [falling, partial curve]
O=C(O)c1cc(NS(=O)(=O)c2cccs2)cc(NS(=O)(=O)c2cccs2)c1	-14.1%	–	–
COc1ccc(NCc2nnc(SCC(=O)Nc3cc(C(F)(F)F)ccc3Cl)o2)cc1	3.32%	0.58 µM [rising, single point]	0.517 µM [rising, partial curve]
Cc1ccccc1Nc1nc(N)nc(COC(=O)c2cccc(S(=O)(=O)N(C)c3ccccc3)c2)n1	8.28%	4.61 µM [rising, full curve]	–
O=C(O)C1=C(Nc2ccccc2)OCC1=O	7.89%	5.62 µM [rising, single point]	–
O=C(/C=C/c1ccccc1[N+](=O)[O-])OCC(=O)N1CCCC1	-2.85%	0.291 µM [rising, partial curve, poor fit]	–
COC(=O)c1sc(N)c(C(=O)OC)c1COC(=O)C1CC(=O)N(Cc2ccco2)C1 (stereo unspecified)	167%	2.31 µM [rising, full curve]	2.91 µM [rising, full curve]
FC(F)(F)c1nnc(Nc2ccc(Cl)cc2)s1	–	1.3 µM [rising, full curve]	–
Cc1ccc(S(=O)(=O)Nc2nc3ccccc3nc2NCC2CCCO2)c(C)c1 (stereo unspecified)	24%	2.31 µM [rising, partial curve, poor fit]	0.00461 µM [rising, full curve, poor fit]
COc1ccc(C(=O)NCc2nnc(SCC(=O)Nc3nc4ccc(C)cc4s3)o2)cc1OC	-2.98%	0.82 µM [falling, full curve]	–
CCCCOC(=O)CCn1[nH]c(=O)c2ccccc2c1=O	-4.43%	0.58 µM [falling, single point]	–
O=C(c1ccco1)N1CCN(Cc2cccc([N+](=O)[O-])c2)CC1	28.2%	–	–
CC1(C(=O)O)Cc2ccccc2C(=O)O1 (stereo unspecified)	-116%	–	20.6 µM [falling, partial curve]
Cc1ccccc1CCNC(=O)C1CC(O)CN1C(=O)Nc1ccccc1 (stereo unspecified)	13.7%	29.1 µM [falling, single point]	–
CC(C)CC(=O)NN(C)c1nc(-c2ccccc2)nnc1C(F)(F)F	–	32.6 µM [rising, partial curve]	–
